# In paper PMC4588589:
# Amino acid sequences for entries named in this document (tags omitted). Residues count along the entry.
# UniProt P16092, residues 22-822: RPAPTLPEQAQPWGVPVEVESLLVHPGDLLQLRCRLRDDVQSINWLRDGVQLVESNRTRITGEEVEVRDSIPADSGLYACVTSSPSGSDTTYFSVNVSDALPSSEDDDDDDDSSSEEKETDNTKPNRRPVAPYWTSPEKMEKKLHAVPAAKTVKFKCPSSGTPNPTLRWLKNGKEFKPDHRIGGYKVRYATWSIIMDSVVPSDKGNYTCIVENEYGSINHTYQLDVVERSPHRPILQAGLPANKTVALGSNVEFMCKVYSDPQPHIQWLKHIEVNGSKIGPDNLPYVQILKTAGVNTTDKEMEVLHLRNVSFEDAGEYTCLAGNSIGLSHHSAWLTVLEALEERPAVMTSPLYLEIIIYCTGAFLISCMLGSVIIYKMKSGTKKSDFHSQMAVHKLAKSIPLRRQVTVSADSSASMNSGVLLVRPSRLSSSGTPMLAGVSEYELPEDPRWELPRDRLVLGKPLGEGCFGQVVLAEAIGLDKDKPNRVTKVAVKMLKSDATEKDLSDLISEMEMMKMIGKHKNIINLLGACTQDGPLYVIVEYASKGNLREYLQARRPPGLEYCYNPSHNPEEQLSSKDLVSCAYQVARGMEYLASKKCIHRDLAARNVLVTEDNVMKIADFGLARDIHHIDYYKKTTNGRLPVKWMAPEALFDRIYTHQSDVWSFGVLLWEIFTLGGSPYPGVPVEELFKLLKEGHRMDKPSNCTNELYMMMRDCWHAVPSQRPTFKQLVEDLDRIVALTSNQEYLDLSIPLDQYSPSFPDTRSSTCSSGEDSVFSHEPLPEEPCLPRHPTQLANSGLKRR
# UniProt P15116, residues 160-906: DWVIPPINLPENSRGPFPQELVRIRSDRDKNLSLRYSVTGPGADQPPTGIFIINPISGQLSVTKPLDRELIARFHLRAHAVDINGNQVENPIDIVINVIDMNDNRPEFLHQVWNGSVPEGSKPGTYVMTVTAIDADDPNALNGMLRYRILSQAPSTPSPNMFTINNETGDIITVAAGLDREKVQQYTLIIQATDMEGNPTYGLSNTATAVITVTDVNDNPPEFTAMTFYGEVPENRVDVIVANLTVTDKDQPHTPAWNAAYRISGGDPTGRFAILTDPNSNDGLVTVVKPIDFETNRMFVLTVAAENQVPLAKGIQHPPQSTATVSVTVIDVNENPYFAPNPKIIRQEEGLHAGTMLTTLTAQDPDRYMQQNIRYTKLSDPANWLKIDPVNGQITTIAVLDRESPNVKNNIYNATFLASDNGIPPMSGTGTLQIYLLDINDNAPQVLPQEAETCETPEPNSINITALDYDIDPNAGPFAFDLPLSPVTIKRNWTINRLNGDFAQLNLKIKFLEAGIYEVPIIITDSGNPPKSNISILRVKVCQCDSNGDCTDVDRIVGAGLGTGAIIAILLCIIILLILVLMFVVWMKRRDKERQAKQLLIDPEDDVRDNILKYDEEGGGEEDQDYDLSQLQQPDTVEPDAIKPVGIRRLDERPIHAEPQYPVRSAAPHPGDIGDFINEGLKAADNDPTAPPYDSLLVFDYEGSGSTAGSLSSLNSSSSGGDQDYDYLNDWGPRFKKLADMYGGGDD
# These are yes or no findings as the source states them, for the method shown. In cells and extracts the contact can be indirect. Some entries that bind do so weakly or less than the wild type.
# Target: FGFR1 (mouse (endogenous in mEpiSCs)) (UniProt P16092)
# Assay: co-IP; lysates of wild-type mEpiSCs or Cdh1-mEpiSCs in IP extraction buffer (25 mM Tris-HCl pH7.5, 100 m NaCl, 0.5% Triton X-100); anti-FGFR1 antibody with Dynabeads Protein G in 0.02% tween TBS; eluted in SDS buffer, Western blot
substance,measurement,value
Cadherin 2 (Cdh2) (from UniProt P15116 160-906),binding,binds
